Experimental data reported in paper PMC4513854.
No constants are given. Whether binding was seen depends on the method and setting. In cells and extracts the contact can be indirect. Some results given as binding are weak or reduced against the parent protein; the word gives no strength.

Amino acid sequences for entries named in this document (tags omitted). A change or cut given only in a name is not applied to a line headed by its entry.
UniProt P23511: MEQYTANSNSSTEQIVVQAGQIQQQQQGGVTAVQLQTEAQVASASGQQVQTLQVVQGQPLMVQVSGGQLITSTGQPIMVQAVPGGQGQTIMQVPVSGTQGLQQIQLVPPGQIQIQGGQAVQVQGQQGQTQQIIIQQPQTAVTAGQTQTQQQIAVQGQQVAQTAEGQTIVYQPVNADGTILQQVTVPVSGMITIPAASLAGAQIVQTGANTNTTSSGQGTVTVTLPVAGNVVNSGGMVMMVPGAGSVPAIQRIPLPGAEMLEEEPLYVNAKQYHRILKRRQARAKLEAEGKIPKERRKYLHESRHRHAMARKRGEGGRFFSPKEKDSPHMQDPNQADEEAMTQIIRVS
UniProt P48436: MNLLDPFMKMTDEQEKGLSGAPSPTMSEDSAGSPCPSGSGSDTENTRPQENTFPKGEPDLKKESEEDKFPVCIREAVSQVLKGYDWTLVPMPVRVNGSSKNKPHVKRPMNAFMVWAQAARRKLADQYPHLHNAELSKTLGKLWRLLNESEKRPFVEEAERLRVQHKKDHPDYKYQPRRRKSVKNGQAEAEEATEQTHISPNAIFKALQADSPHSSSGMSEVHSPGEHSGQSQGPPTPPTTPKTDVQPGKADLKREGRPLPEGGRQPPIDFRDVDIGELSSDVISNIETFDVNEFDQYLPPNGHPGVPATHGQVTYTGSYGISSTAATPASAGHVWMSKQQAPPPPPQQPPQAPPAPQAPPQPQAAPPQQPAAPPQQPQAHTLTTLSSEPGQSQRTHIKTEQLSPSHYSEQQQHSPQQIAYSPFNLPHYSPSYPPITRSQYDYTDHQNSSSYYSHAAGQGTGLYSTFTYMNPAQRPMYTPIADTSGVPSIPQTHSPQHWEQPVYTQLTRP

Experiments:
[1] = molecular target: NF-YA (human (endogenous in HCT116 and HT29)) (UniProt P23511); experiment: proximity ligation; in situ PLA with anti-FLAG and anti-NF-YA antibodies on HCT116 cells transfected with FLAG-tagged SOX9 constructs; endogenous NF-YA
[2] = molecular target: NF-YA (human (endogenous in HCT116 and HT29)) (UniProt P23511); experiment: proximity ligation; in situ PLA (Duolink) on fixed, permeabilised HCT116 and HT29 cells with anti-SOX9 and anti-NF-YA primary antibodies; endogenous proteins; control mouse IgG

Substance	binding [1]	binding [2]
FLAG-SOX9-303ΔC (from UniProt P48436 1-303) (domain or fragment)	no binding	–
SOX9 (from UniProt P48436 1-509)	–	binds
